Results reported in patent US10351895B2, “Biological dosage of peptidoglycans” (ROQUETTE FRERES, priority 2014, dated 2019).
Where a name gives a salt, the structure may show the parent alone. At least one peptide structure holds a part that was inferred or is arguable (an end, a ring closure or a residue). Peptide text beside a SMILES is read from it. * marks the point of attachment. X1 = CCCCCCCCCCCCCCCC(=O)OCC(C*)OC(=O)CCCCCCCCCCCCCCC; Palmitoyl = CCCCCCCCCCCCCCCC(=O)*

The chains behind the UniProt entries cited, without tags or fusion partners. Residues count along the entry.
UniProt O60603, 21-784: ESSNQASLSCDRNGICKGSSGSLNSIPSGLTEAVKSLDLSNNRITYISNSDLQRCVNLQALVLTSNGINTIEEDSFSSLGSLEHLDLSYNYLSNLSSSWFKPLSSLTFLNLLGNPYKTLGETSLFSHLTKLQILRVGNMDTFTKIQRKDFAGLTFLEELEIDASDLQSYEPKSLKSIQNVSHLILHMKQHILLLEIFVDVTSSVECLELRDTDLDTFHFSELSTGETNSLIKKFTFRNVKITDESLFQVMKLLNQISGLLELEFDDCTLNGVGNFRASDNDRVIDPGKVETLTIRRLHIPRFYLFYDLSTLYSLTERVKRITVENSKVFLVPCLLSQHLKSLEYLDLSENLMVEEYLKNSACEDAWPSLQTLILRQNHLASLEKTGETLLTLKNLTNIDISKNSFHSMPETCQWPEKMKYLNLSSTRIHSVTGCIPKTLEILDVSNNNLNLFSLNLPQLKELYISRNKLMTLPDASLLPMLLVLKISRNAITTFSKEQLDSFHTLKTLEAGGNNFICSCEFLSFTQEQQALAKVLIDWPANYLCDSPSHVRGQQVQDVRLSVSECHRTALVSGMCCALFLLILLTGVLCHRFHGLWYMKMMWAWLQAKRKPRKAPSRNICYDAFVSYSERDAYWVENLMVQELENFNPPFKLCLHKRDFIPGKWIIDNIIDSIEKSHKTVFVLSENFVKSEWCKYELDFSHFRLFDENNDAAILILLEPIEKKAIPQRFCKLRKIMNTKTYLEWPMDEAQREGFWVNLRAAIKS

Molecular target: T1, human TLR2 (Homo sapiens, UniProt O60603)
T1 construct: host or cells: HEK-Blue hTLR2 (HEK-293 derived, SEAP reporter)
Test: Response of HEK-Blue hTLR2 (HEK-TLR2) cells, SEAP reporter dose-response
Format: cell-based
Conditions: three batches of S. aureus PGN compared to PAM3(cys) (FIG. 5)

In the case of `CCCCCCCCCCCCCCCC(=O)N[C@@H](CSCC(COC(=O)CCCCCCCCCCCCCCC)OC(=O)CCCCCCCCCCCCCCC)C(=O)N[C@@H](CO)C(=O)N[C@@H](CCCCN)C(=O)N[C@@H](CCCCN)C(=O)N[C@@H](CCCCN)C(=O)N[C@@H](CCCCN)C(=O)O` (stereo partly drawn) [PAM3(cys), PAM3Cys-Ser-(Lys)4 trihydrochloride] (Palmitoyl-C(X1)SKKKK-OH; N-terminus and C-terminus assumed), the EC50 is reported as 5.3 nM.
